Laboratory results published in PubChem BioAssay AID2551 (National Center for Advancing Translational Sciences (NCATS), 2010).
“And” between values parts separate entries of the source, which are not always exact repeats. Identical values can stand only once. Among all 310,000 compounds or so, about 17,000 (5.5%) were called active. The shares of active, inactive and inconclusive entries below differ from those in the screen. The call rests on the fitted dose curve; in most records, active means well fitted inhibition curve with a large enough effect; inconclusive means small, poorly fitted or top-dose-only effect, or effect the other way; inactive means no such curve, though single readings can be large or run the other way. Potencies beside an inconclusive call are fits to weak or partial responses and may not hold up.

Chains of the proteins cited; added tags and fusions are not shown. Lines headed by an entry give the natural chain unless they say otherwise; changes in a name come on top.
UniProt P51450: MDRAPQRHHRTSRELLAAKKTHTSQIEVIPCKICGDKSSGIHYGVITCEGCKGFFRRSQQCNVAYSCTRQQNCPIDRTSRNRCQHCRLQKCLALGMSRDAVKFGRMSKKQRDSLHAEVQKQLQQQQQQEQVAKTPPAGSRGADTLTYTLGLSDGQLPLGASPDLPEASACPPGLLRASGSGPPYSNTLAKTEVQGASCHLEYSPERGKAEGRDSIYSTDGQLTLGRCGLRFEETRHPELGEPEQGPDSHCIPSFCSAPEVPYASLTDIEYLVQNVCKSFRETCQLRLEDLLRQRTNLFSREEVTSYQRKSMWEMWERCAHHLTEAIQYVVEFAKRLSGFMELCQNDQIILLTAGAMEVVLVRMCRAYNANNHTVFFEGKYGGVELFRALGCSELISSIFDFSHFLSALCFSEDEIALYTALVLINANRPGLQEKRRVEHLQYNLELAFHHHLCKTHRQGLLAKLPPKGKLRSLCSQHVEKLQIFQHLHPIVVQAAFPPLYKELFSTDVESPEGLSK

These compounds were tested against Nuclear receptor ROR-gamma (Mus musculus) (UniProt P51450) (assay: qHTS for inhibitors of ROR gamma transcriptional activity). Conditions: Drosophila S2 Gal4-RORgamma UAS-luciferase reporter, 20 h; activity change, negative = inhibition: at 53.6 µM (top of the series).
In short: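 Luciferase reporter read in Schneider cells carrying Gal4-RORγ (mouse) and UAS-Photinus luciferase; cells given compound 1 h before 700 uM copper sulfate induction, then incubated 20 h at ambient temperature.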
Further: nearly all actives have a fitted effect of over 60% in size.
On the % scale 0 is the no-effect control and ±100 the full control effect; potency means the concentration at half of the fitted maximal effect.

Potency, inconclusive:
O=C(CCn1c(=O)c2cccn2c2ccc(F)cc21)NCCc1ccccc1 20 µM [activator, partial curve]
COCCCn1c(=O)c2ccccc2n2c(=S)[nH]nc12 20 µM [inhibitor, single point]
Cc1ccc(C)c(NC(=S)NNC(=S)Nc2ccc(C(C)C)cc2)c1 35.5 µM [inhibitor, single point]
O=C(CCCn1ncn2c(cc3occc32)c1=O)N1CCc2ccccc2C1 7.94 µM [activator, partial curve]
Cc1nn(-c2ccccc2)c2sc(C(=O)OCc3nnc(-c4ccccc4)o3)cc12 2.51 µM [activator, partial curve, poor fit]
CCN1C(=O)C2(C(C#N)=C(N)Oc3n[nH]c(COC)c32)c2ccccc21 (centres undefined) 35.5 µM [activator, single point]
O=C(c1ccc([N+](=O)[O-])cc1[N+](=O)[O-])N1CCc2ccccc21 12.6 µM [inhibitor, partial curve, poor fit]
CCC(C)/C(C)=N/NC(=O)c1ccc(CSc2nc3ccccc3s2)cc1 (centres undefined) 22.4 µM [inhibitor, single point]
CCN(C(=O)CN1CCN(c2ccccc2F)CC1)c1c(N)n(Cc2ccccc2)c(=O)[nH]c1=O 20 µM [activator, partial curve]
COc1ccccc1/C=C/C(=O)OCC(=O)Nc1cc(C(F)(F)F)ccc1N1CCOCC1 3.55 µM [activator, full curve]
S=c1[nH]ccn1-c1ccccc1Cl 10 µM [inhibitor, partial curve] and 7.94 µM [inhibitor, partial curve]
COc1ccc(/C(O)=C2/C(=O)C(=O)N(CCCN3CCOCC3)C2c2ccc(OC)cc2)cc1 (centres undefined) 0.447 µM [activator, partial curve]
Cc1sc2cc3c(c(C(=O)c4ccccc4)[n+]2c1C)-c1cccc2cccc-3c12 15.8 µM [inhibitor, single point]
O=C1N=C(c2ccccc2)S/C1=C\c1cccs1 4.47 µM [activator, partial curve]
CN(CC(CC(=O)O)c1ccccc1)S(=O)(=O)c1ccc(Br)cc1 (centres undefined) 35.5 µM [inhibitor, single point]
Cc1cccc(N(Cc2cc3ccccc3[nH]c2=O)S(=O)(=O)c2ccccc2)c1 35.5 µM [activator, single point]
C/C(CC(=O)Nc1ccc(N(C)C)cc1)=N\NC(=O)c1ccc([N+](=O)[O-])cc1Cl 14.1 µM [inhibitor, single point]
CC(C)Cn1c(N)c(C(=O)COC(=O)c2c(F)cccc2F)c(=O)n(C)c1=O 10 µM [activator, partial curve]
O=C(c1ccc(CN2CCOCC2)cc1)N1CCN(c2cccc(Cl)c2)CC1 35.5 µM [activator, single point]
OC(CNCCC1C=Nc2ccccc21)Cn1c2ccc(Cl)cc2c2cc(Cl)ccc21 (centres undefined) 35.5 µM [inhibitor, single point]
COC(=O)c1cc(-c2c(C)nn(-c3ccccc3)c2C)n[nH]1 10 µM [activator, partial curve]
COc1ccc(C2NC(C(=O)O)CS2)cc1COCC(F)(F)F (centres undefined) 11.2 µM [activator, partial curve]
CC1=CC(C)(C)N2C(=O)C3(C(C#N)=C(N)OC4=C3C(=O)CC(C)(C)C4)c3cccc1c32 (centres undefined) 5.01 µM [inhibitor, single point]
Nc1ccc(-c2cc(-c3cccc(N)c3)nc(-c3ccccc3)n2)cc1 22.4 µM [activator, single point]
O=C1c2ccccc2C(Nc2ccc(Cl)cn2)N1c1ccccn1 (centres undefined) 5.01 µM [activator, single point]
O=C(Nc1nnc(-c2ccco2)s1)c1ccccc1 12.6 µM [inhibitor, single point]
COc1ccc(CCNC(=O)[C@H](C)N2C(=O)N3CCc4c([nH]c5ccccc45)[C@@]3(C)C2=O)cc1 10 µM [activator, partial curve, poor fit]
COc1cc(/C=C/C(=O)OCC(=O)Nc2ccccc2Sc2ccc(Cl)cc2)ccc1O 35.5 µM [activator, single point]
COc1ccc(/C=C/C(=O)Nc2c(C)nn(C)c2C)cc1COc1ccc(Cl)cc1Br 35.5 µM [inhibitor, single point]
O=C(Nc1nccs1)C12CC3CC(C1)CC(C(=O)Nc1nccs1)(C3)C2 7.08 µM [inhibitor, partial curve]
O=C(C1CCN(c2nnc(-n3cccc3)s2)CC1)N1CCc2ccccc2C1 0.158 µM [activator, single point]
O=C(NCc1ccccc1Cl)c1ccc2c(=O)n(CC3CCCO3)c(=S)[nH]c2c1 (centres undefined) 35.5 µM [inhibitor, single point]
CN(C)S(=O)(=O)c1cccc(-c2nnc(SCc3cc(Cl)cc4c3OCOC4)n2N)c1 14.1 µM [activator, partial curve, poor fit]

Potency, active:
Cc1ccccc1-n1c(=S)[nH]c2nc3c(cc2c1=O)CCCC3 1.26 µM
Cc1cc(NC(=O)c2c(F)cccc2Cl)n(-c2nc3ccccc3[nH]2)n1 4.47 µM
Oc1ccc(N=Nc2ccccc2-c2nn[nH]n2)c(O)c1 15.8 µM
Cc1c(N=Nc2c(-c3ccc([N+](=O)[O-])cc3)[nH]n(C(N)=S)c2=O)cccc1[N+](=O)[O-] 0.708 µM
CC(=O)N/N=C/c1c(C)[nH]n(-c2ccccc2)c1=O 5.01 µM
Cc1cccc(NC(=S)N=Nc2c(O)n(CN3CCOCC3)c3ccccc23)c1C 0.708 µM
Cc1ccc(/C=C/C(=O)c2nc3ccccc3[nH]2)cc1 6.31 µM
O=C(c1ccccc1)c1nc[nH]c1C(=O)Nc1ccccn1 12.6 µM
Oc1ccc(Br)cc1/C=N/n1c(COc2ccccc2)n[nH]c1=S 10 µM
Fc1ccc(-c2n[nH]c(=S)n2CC2CCCO2)cc1 (centres undefined) 11.2 µM
Cn1c(O)c(N=NC(N)=S)c2ccccc21 1.12 µM
Cc1csc(N/N=C/c2ccccn2)n1 0.355 µM
Cc1ccc(C(=O)Nc2nnc(C)s2)cc1 10 µM
CC(=O)Nc1ccc(NC(=O)CNS(=O)(=O)c2ccc(C)cc2)cc1 10 µM
CCOC(=O)c1c(NC(=S)Nc2ccccc2C)sc2c1CCC2 3.55 µM
CCN(C(=S)Nc1ccc(Oc2ccccc2)cc1)c1ccccc1 12.6 µM
COc1cc2nc(CN3CCC(Cc4ccccc4)CC3)[nH]c(=O)c2cc1OC 11.2 µM
CCc1ccc(NC(=S)N2CCN(c3cccc(OC)c3)CC2)cc1 12.6 µM

Activity change, negative = inhibition, inactive:
CN(C)/C=C/C(=C\C(=O)C(F)(F)F)Nc1ccc(C(F)(F)F)cc1 -0.205%
Cc1ccc(CNC(=O)CCSCc2ccccc2F)cc1 -0.0736%
Cc1ccccc1C(=O)NC1CCN(C(=O)NC2CCCCC2)CC1 -8.2%
CC(CN1CCOCC1)OC(=O)C(C)(c1ccccc1)c1ccccc1 (centres undefined) 40.1%
Cc1cc(C)nc(Nc2n[nH]c(COc3ccc4ccccc4c3)n2)n1 -19.3%
CCN(CC)S(=O)(=O)c1ccc2[nH]cc(C(=O)NCCN3CCCCCC3)c(=O)c2c1 21.1%
NCCCC[C@H](NC(=O)CNC(=O)[C@@H]1CCCN1C(=O)[C@H](Cc1ccc(O)cc1)NC(=O)CN)C(=O)N[C@@H](Cc1ccccc1)C(=O)O 6.53%
Cc1cccc(CN2CCC(C(=O)Nc3ccc(Oc4cccnc4)cc3)CC2)c1 -1.45%
COc1cccc(C=O)c1OCCN1C(=O)c2ccccc2C1=O 8.4%
CCOc1ccc(CNCCc2ccc(S(N)(=O)=O)cc2)cc1 5.99%
COc1ccc(Br)cc1/C=C/C(=O)NCC(=O)O -2.43%
O=C(COc1ccccc1Cl)N1CCN(c2ccc(F)cc2)CC1 16.3%
Cc1cc([N+](=O)[O-])nn1CCCC(=O)NC(C)c1ccccc1 (centres undefined) 42.3% [at 10 µM]
CCc1[nH]nc2c1C(Cc1ccccc1)C(C#N)=C(N)O2 (centres undefined) 26.5%
CC(C)Cc1cc(C(=O)N2CCCC(CO)(Cc3ccc(F)cc3)C2)no1 (centres undefined) 43.3%
O=S(=O)(c1ccccc1)N1CCCC1c1cccs1 (centres undefined) 18.6%
Cc1sc(NC(=O)c2ccco2)c(C(c2ccncc2)N2CCOCC2)c1C (centres undefined) 15.6%
O=C(CCn1ccc2cc(S(=O)(=O)N3CCCC3)ccc21)NCc1cccc(F)c1 6.92%
CCc1cc2c(C)ccc(C)c2nc1SCC(=O)Nc1c(C)[nH]c(=O)[nH]c1=O 5.62%
COc1ccc(CCN(Cc2cccs2)S(=O)(=O)c2ccc(S(=O)(=O)N3CCCCCC3)cc2)cc1OC -8.98%
COc1ccc(O)c(CN2CCN(CCCc3ccccc3)C(CCO)C2)c1 (centres undefined) 14.8%
COc1cc(CC(=O)OCC(=O)N2CCCCC2)cc(OC)c1OC 10.6%
COc1ccc(/C=C\C(=O)Oc2cccc(/C=N/NC(=O)Cc3ccc(OC)c(OC)c3)c2)cc1 -28.2%
